PMC3540032, “Comprehensive Analysis and Identification of the Human STIM1 Domains for Structural and Functional Studies” (PLoS ONE, 2013)
Results are given in words; binding and its absence hold for the method and conditions named.

Molecular target: Orai1 C-terminal peptide with an extra N-terminal Cys
Experiment: SPR; Biacore T200; Orai1 peptide immobilised on a CM5 chip by ligand thiol coupling at 1000 RU; analytes injected at 10 µM; HBS-EP buffer (20 mM HEPES, pH 7.4, 150 mM NaCl, 3.4 mM EDTA, 0.005% Polysorbate 20), 30 µL/min; both purified

Question: With “Lysozyme (from UniProt P00698 19-147) (enzyme)” as the substance, how does the binding read?
Answer: no binding (tested: approximately 10 µM)
